From patent US20080207751A1, “Sulindac Derivatives for Treatment of Cancer” (Sulfidris s.r.l., priority 2005, published 2008)
Some entries share one result that the patent states for a list of compounds. For at least one compound, name, drawing or mass did not settle the structure.

System: Prostaglandin E2
Experiment: Prostaglandin E2 in liver homogenate by enzyme immunoassay
Format: in vivo
Details: rats, fifth day, 6 hr after treatment; sulindac sulfoxide 20 mg/kg, compound example 1 36 mg/kg

How did the “reduction of prostanoid formation in liver homogenates vs vehicle-treated animals” value turn out when `CC1=C(CC(=O)Oc2ccc(-c3cc(=S)ss3)cc2)c2cc(F)ccc2/C1=C\c1ccc([S+](C)[O-])cc1` (stereo not shown) [Example 1, (Z)-5-Fluoro-2-methyl-1-[[4-(methylsulfinyl)phenyl]methylene]-1H-indene-3-acetic acid 4-(thioxo-5H-1-[1,2]dithiol-3-yl)-phenyl ester] was run?
The value was at least 90%.
